The target of this assay is Toxoplasma gondii-derived dense granule protein 16 (TgGRA16), HA-tagged (Toxoplasma gondii) (UniProt Q1JSN3). The assay can be described thus: co-IP; HA-Tag Ab on protein A/G-plus agarose beads added to 0.5 mg M-PER extract of GRA16-stable HepG2 or Hep3B cells, 4 h at 4°C; Western blot with HAUSP Ab. On the technique in general: Immunoblotting shows a protein as a band on a membrane.

The chains behind the UniProt entries cited, without tags or fusion partners.
UniProt Q93009: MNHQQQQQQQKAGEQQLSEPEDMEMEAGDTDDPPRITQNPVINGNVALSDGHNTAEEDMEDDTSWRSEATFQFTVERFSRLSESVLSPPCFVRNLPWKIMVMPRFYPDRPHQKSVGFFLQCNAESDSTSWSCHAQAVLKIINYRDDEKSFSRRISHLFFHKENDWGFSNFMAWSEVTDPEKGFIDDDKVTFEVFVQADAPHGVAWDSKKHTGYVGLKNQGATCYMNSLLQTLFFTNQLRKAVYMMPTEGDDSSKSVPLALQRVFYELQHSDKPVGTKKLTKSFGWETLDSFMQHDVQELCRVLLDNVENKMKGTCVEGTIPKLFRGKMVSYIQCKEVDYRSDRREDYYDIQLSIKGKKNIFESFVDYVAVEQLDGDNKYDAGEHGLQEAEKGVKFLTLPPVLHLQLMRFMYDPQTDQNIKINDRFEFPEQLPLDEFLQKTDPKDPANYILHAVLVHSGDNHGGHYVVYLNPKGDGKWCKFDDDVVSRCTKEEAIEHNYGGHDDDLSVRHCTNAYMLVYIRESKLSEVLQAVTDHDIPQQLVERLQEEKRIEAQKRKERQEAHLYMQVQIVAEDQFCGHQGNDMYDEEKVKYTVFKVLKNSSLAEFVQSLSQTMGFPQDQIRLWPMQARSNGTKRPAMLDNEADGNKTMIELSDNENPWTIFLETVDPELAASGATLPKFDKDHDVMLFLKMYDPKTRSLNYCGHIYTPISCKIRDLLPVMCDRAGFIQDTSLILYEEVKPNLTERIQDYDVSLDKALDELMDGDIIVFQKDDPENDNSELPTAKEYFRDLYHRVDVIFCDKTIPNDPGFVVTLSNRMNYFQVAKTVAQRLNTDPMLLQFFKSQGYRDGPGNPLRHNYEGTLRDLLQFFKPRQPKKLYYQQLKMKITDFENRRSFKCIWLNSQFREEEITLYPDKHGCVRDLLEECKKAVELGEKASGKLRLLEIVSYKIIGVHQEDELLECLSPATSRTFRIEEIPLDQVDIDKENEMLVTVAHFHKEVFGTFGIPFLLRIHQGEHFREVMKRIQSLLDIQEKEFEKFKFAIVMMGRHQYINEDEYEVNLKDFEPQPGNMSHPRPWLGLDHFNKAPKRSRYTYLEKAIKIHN

No constants are given. Whether binding was seen depends on the method and setting. In cells and extracts the contact can be indirect. Binding can be weak; no strength is given.

Take “Ubiquitin-specific peptidase 7 / herpes virus-associated ubiquitin-specific protease (USP7/HAUSP) (from UniProt Q93009 1-1102) (enzyme)”: the binding result was “binds”.

The values are drawn from PMC6484329.
